Data published in paper PMC12431657, “Discovery and mechanistic insights of dibenzoylmethane as a broad spectrum inhibitor of coronavirus” (PLOS Pathogens, 2025).
Where a name gives a salt, the structure may show the parent alone. Read-outs that look alike come from different tables or passages of the source. Out of some 3,300 compounds screened, about 60 (2%) showed an effect of 50% or more. The list shows a part of the results.

Test system: HCoV-OC43
Set-up: species or system RD; HTS, protection from HCoV-OC43 induced cell death, luminescent cell viability (CellCounting-Lite 2.0), inhibition rate
Details: 24 h post infection, 1 h compound pre-incubation, 10 µM, inhibitor

Row | SMILES | OC43 Inhibition rate [%] | OC43 Inhibition rate (OC43 Inhibition rate, 24 h) [%]
1 | O=c1ccc2ccc(O[C@@H]3O[C@H](CO)[C@@H](O)[C@H](O)[C@H]3O)c(O)c2o1 [Daphnin] | 1.4 | –
2 | O=C(O)[C@H]1O[C@@H](Oc2cc(O)c3c(=O)cc(-c4ccc(O)c(O)c4)oc3c2)[C@H](O)[C@@H](O)[C@@H]1O [Luteolin 7-O-glucuronide] | 0.8 | –
3 | O=C(O)CNC(=O)c1ccco1 [2-Furoylglycine] | 1.9 | –
4 | CC(=O)[C@H]1CC[C@H]2[C@@H]3CC=C4C[C@@H](O)CC[C@]4(C)[C@H]3CC[C@]12C [Pregnenolone] | 1.3 | –
5 | COc1ccc(-c2cc(=O)c3c(OC)cc(OC)c(OC)c3o2)cc1OC [Isosinensetin] | 0.6 | –
6 | C[C@@H](O)[C@H](N)C(=O)O (racemic) [DL-Threonine] | -2.5 | –
7 | Oc1cc2c(cc1O)[C@@H]1c3ccc(O)c(O)c3OC[C@]1(O)C2 [Hematoxylin] | 11.1 | –
8 | COc1cc(O)c2c(=O)cc(-c3ccc(O)cc3)oc2c1 [Genkwanin] | 0.4 | –
9 | O=c1ccn([C@@H]2O[C@H](COP(=O)(O)OP(=O)(O)OP(=O)(O)O)[C@@H](O)[C@H]2O)c(=O)[nH]1 [Uridine triphosphate (trisodium salt)] | -1.3 | –
10 | Cc1cccc2c3c(ccc12)C(=O)C(C(C)CO)=C(O)C3=O (stereo not drawn) [Danshenxinkun A] | -1.6 | –
11 | COc1cc2c(cc1OC)[C@@H](Cc1ccc(O)c(Oc3cc4c(cc3OC)CCN(C)[C@@H]4Cc3ccc(O)cc3)c1)N(C)CC2 [Liensinine] | – | 54.6
12 | C[C@@H]1O[C@@H](O[C@H]2[C@H](OC(=O)[C@]34CCC(C)(C)C[C@H]3C3=CC[C@@H]5[C@@]6(C)C[C@H](O)[C@H](O[C@@H]7O[C@H](CO)[C@@H](O)[C@H](O)[C@H]7O)C(CO)(CO)[C@@H]6CC[C@@]5(C)[C@]3(C)C[C@H]4O)OC[C@H](O)[C@@H]2O)[C@H](O)[C@H](O)[C@H]1O[C@@H]1OC[C@@H](O)[C@H](O)[C@H]1O [Deapioplatycodin D] | 0 | –
13 | O=C(O)CP(=O)(O)O [Phosphonoacetic acid] | 4.8 | –
14 | O=C(O[C@H](Cc1ccc(O)c(O)c1)C(=O)O)C1=Cc2cc(O)c(O)cc2[C@H](c2ccc(O)c(O)c2)[C@H]1C(=O)OC(Cc1ccc(O)c(O)c1)C(=O)O (stereo in doubt) [Rabdosiin] | -1 | –
15 | COc1cc(-c2cc(=O)c3c(O)cc(O)cc3o2)ccc1O [Chrysoeriol] | 0.5 | –
16 | O=c1c2c(O)cc(O)cc2oc2c(O)ccc(O[C@@H]3O[C@H](CO)[C@@H](O)[C@H](O)[C@H]3O)c12 [Norswertianolin] | -0.5 | –
17 | Nc1ccccc1C(=O)C[C@@H](N)C(=O)O [D-Kynurenine] | -6.1 | –
18 | CCC(C)(O)C(=O)O (stereo not drawn) [2-Hydroxy-2-methylbutanoic acid] | -0.4 | –
19 | COc1cc2c(cc1OC)C(Cc1ccc(O)cc1)N(C)CC2 (stereo not drawn) [Armepavine] | -11.6 | –
20 | O=C(O)[C@H]1O[C@@H](Oc2cc(O)c3c(=O)cc(-c4ccccc4)oc3c2)[C@H](O)[C@@H](O)[C@@H]1O [Chrysin-7-O-glucuronide] | 0 | –

Row | SMILES | OC43 Inhibition rate [%] | OC43 Inhibition rate (OC43 Inhibition rate, 24 h) [%]
21 | CCCC[C@H](N)C(=O)O [L-Norleucine] | -2.6 | –
22 | CCCCCCCCCCCCC/C=C/[C@@H](O)[C@@H](N)CO [D-erythro-Sphingosine] | 4.3 | –
23 | OC[C@H]1O[C@H](OC[C@H]2O[C@H](OC[C@H]3O[C@H](OC[C@H]4OC(O)[C@H](O)[C@@H](O)[C@@H]4O)[C@H](O)[C@@H](O)[C@@H]3O)[C@H](O)[C@@H](O)[C@@H]2O)[C@H](O)[C@@H](O)[C@@H]1O (stereo partly drawn) [Isomaltotetraose] | -3.6 | –
24 | CC(=O)OC(C)C(C)C(=O)OC[C@@]12[C@H]3C[C@]4(C)C(=CC[C@@H]5[C@@]6(C)CC[C@H](O[C@@H]7O[C@H](C(=O)O)[C@@H](O[C@@H]8O[C@H](CO)[C@@H](O)[C@H](O)[C@H]8O)[C@H](O)[C@H]7O[C@@H]7OC[C@@H](O)[C@H](O)[C@H]7O)[C@@](C)(CO)[C@@H]6CC[C@]54C)[C@@H]1CC(C)(C)[C@H](O3)[C@@H]2O (stereo partly drawn) [Sodium aescinate] | 6.6 | –
25 | COc1ccccc1C=O [2-Methoxybenzaldehyde] | 0.1 | –
26 | C[C@@H]1O[C@@H](O[C@@H]2[C@@H](O)[C@H](O)[C@@H](CO)O[C@H]2c2c(O)cc(O)c3c(=O)cc(-c4ccc(O)cc4)oc23)[C@H](O)[C@H](O)[C@H]1O [Vitexin-2"-O-rhamnoside] | 0 | –
27 | NCCCCNCCCN [Spermidine (hydrochloride)] | – | -3.4
28 | CC(O)CN (stereo not drawn) [1-Aminopropan-2-ol] | 0.4 | –
29 | COc1cc2c(cc1O)CCN[C@]21CS[C@@H]2c3c(OC(C)=O)c(C)c4c(c3[C@H](COC1=O)N1[C@@H]2[C@H]2c3c(cc(C)c(OC)c3O)C[C@@H]([C@@H]1C#N)N2C)OCO4 [Ecteinascidin 770] | 9.7 | –
30 | O=c1cc(-c2ccccc2)oc2cccc(O)c12 [5-Hydroxyflavone] | 10.7 | –
31 | CC(C)(O)[C@H]1Cc2cc3ccc(=O)oc3cc2O1 [Nodakenetin] | 4 | –
32 | NC1CCN(c2nc3c(cc2F)c(=O)c(C(=O)O)cn3-c2ccc(F)cc2F)C1 (stereo not drawn) [Tosufloxacin (tosylate hydrate)] | 58.8 | –
33 | COc1cc(-c2cc(=O)c3c(O)c(OC)c(O)cc3o2)ccc1O [Jaceosidin] | -0.3 | –
34 | O=S(=O)(O)CCO [Isethionic acid sodium salt] | -0.5 | –
35 | C[C@@H](O)[C@@H](C)O [(2R,3R)-Butane-2,3-diol] | – | 2.5
36 | Oc1ccc2c(c1)OC[C@H]1c3cc4c(cc3O[C@@H]21)OCO4 [(-)-Maackiain] | – | 2.8
37 | COc1c2ccoc2c(OCC(O)C(C)(C)O)c2oc(=O)ccc12 (racemic) [(Rac)-Byakangelicin] | -2.4 | –
38 | Nc1ncnc2c1ncn2[C@@H]1O[C@H](COP(=O)(O)O)[C@@H](O)[C@H]1O [Adenosine 5'-monophosphate monohydrate] | – | -3.1
39 | COc1ccc(C2COc3cc(O)ccc3C2)c(O)c1OC (stereo not drawn) [Isomucronulatol] | 16.2 | –
40 | OC[C@@H](O)[C@@H](O)[C@@H](O)CO [Ribitol] | 1 | –

Row | SMILES | OC43 Inhibition rate [%] | OC43 Inhibition rate (OC43 Inhibition rate, 24 h) [%]
41 | Oc1cc(O)c2c(c1)O[C@H](c1cc(O)c(O)c(O)c1)[C@@H](O)C2 [(+)-Gallocatechin] | 0.2 | –
42 | OCc1ccccc1O [Salicyl alcohol] | 0 | –
43 | C/C1=C\CC[C@]23O[C@H]2[C@@H](OC3=O)c2c(C)coc2C1 [Linderane] | 1 | –
44 | Cc1cn([C@H]2C[C@H](O)[C@@H](CO)O2)c(=O)nc1N [5-Methyl-2'-deoxycytidine] | -0.4 | –
45 | C1CSCSC1 [1,3-Dithiane] | -0.2 | –
46 | CCCCCCCCCC(=O)O [Decanoic acid] | -4.9 | –
47 | C[C@]1(C(=O)O)CC[C@]2(C)CC[C@]3(C)C(=CC(=O)[C@@H]4[C@@]5(C)CC[C@H](O[C@@H]6O[C@H](C(=O)O)[C@@H](O)[C@H](O)[C@H]6O[C@@H]6O[C@H](C(=O)O)[C@@H](O)[C@H](O)[C@H]6O)[C@](C)(CO)[C@@H]5CC[C@]43C)[C@@H]2C1 [Licoricesaponin G2] | -2.8 | –
48 | C/C1=C\CC(C)(C)/C=C/C(=O)/C(C)=C/CC1 [Zerumbone] | 0.3 | –
49 | COC(=O)[C@@]12OC[C@]34[C@H]([C@@H](O)[C@@H]1O)[C@@]1(C)CC(=O)C(O)=C(C)[C@@H]1C[C@H]3OC(=O)[C@H](OC(=O)/C=C(\C)C(C)C)[C@@H]24 [Bruceantin] | 5 | –
50 | C=C[C@]1(C)CC[C@@H](C(=C)C)C[C@H]1C(=C)C [β-Elemene] | -0.3 | –
51 | CC(C)CC(=O)C(=O)O [4-Methyl-2-oxopentanoic acid] | 0 | –
52 | C[C@@H]1O[C@@H](OC[C@H]2O[C@@H](Oc3cc(O)c4c(=O)cc(-c5ccc(O)cc5)oc4c3)[C@H](O[C@@H]3O[C@@H](C)[C@H](O)[C@@H](O)[C@H]3O)[C@@H](O)[C@@H]2O)[C@H](O)[C@H](O)[C@H]1O [Ligustroflavone] | 5.5 | –
53 | CC1=C2C[C@H]3[C@@H](CC=C4C[C@@H](O)CC[C@@]43C)[C@@H]2CC[C@]12O[C@@H]1C[C@H](C)CN[C@H]1[C@H]2C [Cyclopamine] | 0 | –
54 | COc1cc(CO)ccc1O [Vanillyl alcohol] | 4.7 | –
55 | COc1c2c(cc3oc(C)cc(=O)c13)OC(C(C)(C)O[C@@H]1O[C@H](CO)[C@@H](O)[C@H](O)[C@H]1O)C2 (stereo partly drawn) [5-O-Methylvisammioside] | 0.3 | –
56 | COc1cccc(O)c1C(=O)O [2-Hydroxy-6-methoxybenzoic acid] | 0 | –
57 | C/C=C1\C(=O)C[C@H]2[C@@H]3CCC4=CC(=O)CC[C@]4(C)[C@H]3CC[C@]12C [Guggulsterone] | – | -0.4
58 | Cc1ncc(CO)c(CO)c1O [Pyridoxine] | – | -0.5
59 | CC(=O)C(=O)O [Pyruvic acid] | -0.6 | –
60 | CC(=O)O[C@@H]1C(=O)C2=C(C(=O)C[C@H]3C(C)(C)C(=O)CC[C@]23C)[C@]2(C)C(=O)C[C@H]([C@H](C)CC(=O)CC(C)C(=O)O)[C@@]12C (stereo partly drawn) [Ganoderic acid F] | -0.7 | –

Part of the list above in order of formula weight, rising:
Row | SMILES | OC43 Inhibition rate [%] | OC43 Inhibition rate (OC43 Inhibition rate, 24 h) [%]
4 | CC(=O)[C@H]1CC[C@H]2[C@@H]3CC=C4C[C@@H](O)CC[C@]4(C)[C@H]3CC[C@]12C [Pregnenolone] | 1.3 | –
32 | NC1CCN(c2nc3c(cc2F)c(=O)c(C(=O)O)cn3-c2ccc(F)cc2F)C1 (stereo not drawn) [Tosufloxacin (tosylate hydrate)] | 58.8 | –
9 | O=c1ccn([C@@H]2O[C@H](COP(=O)(O)OP(=O)(O)OP(=O)(O)O)[C@@H](O)[C@H]2O)c(=O)[nH]1 [Uridine triphosphate (trisodium salt)] | -1.3 | –
24 | CC(=O)OC(C)C(C)C(=O)OC[C@@]12[C@H]3C[C@]4(C)C(=CC[C@@H]5[C@@]6(C)CC[C@H](O[C@@H]7O[C@H](C(=O)O)[C@@H](O[C@@H]8O[C@H](CO)[C@@H](O)[C@H](O)[C@H]8O)[C@H](O)[C@H]7O[C@@H]7OC[C@@H](O)[C@H](O)[C@H]7O)[C@@](C)(CO)[C@@H]6CC[C@]54C)[C@@H]1CC(C)(C)[C@H](O3)[C@@H]2O (stereo partly drawn) [Sodium aescinate] | 6.6 | –
